Assay results from US20050267156A1, “Broadspectrum 2-amino-benzothiazole sulfonamide hiv protease inhibitors” (Tibotec Pharmaceuticals Ltd., priority 2002, published 2005).
For some of these results: The name of at least one read-out is uncertain. At least one compound was matched to its structure with a doubt left.

Columns and labels:
Pharmacokinetics in rats = assay type: in vivo, Whistar rats; conditions: rat
Description: (§1) The pharmacokinetic properties of some compounds of formula (I) were tested on rats and dogs. The compounds were evaluated in Whistar rats, source Iffa Credo, weighing approximately 350 g. Before dosing the animals were fasted overnight (approximately 12 h fasting period). The compounds were dissolved in DMSO or PEG 400. The results represented in the table concern the results from the oral or intra-peritoneal dosing of the compounds. Blood was sampled at 30 min, 1 h, 2 h, 3 h, no pre-dose sample was taken. The amount of the compound in the biological sample was determined using LC-MS. In the table below “or” means oral dosing, “ip” means intraperitoneal dosing, “mpk” means mg per kilogram.

Pharmacokinetics in dogs = assay type: in vivo; conditions: or, dog
Description: as §1

| Compound | time of Cmax (Pharmacokinetics in rats; ip, DMSO) [min] | time of Cmax (Pharmacokinetics in rats; or, PEG400) [min] | time of Cmax (Pharmacokinetics in rats; or, DMSO) [min] | time of Cmax (Pharmacokinetics in dogs; PEG400 - 2 animals) [min] | time of Cmax (Pharmacokinetics in dogs; PEG400 - 4 animals) [min] |
| --- | --- | --- | --- | --- | --- |
| {(1S,2R)-3-[(2-amino-benzothiazole-6-sulfonyl)-isobutyl-amino]-1-benzyl-2-hydroxypropyl}-carbamic acid(3R,3aS,6aR)-hexahydro-furo[2,3-b]furan-3-yl ester [Compound 2] | 30 | 30 | – | – | – |
| CNc1nc2ccc(S(=O)(=O)N(CC(C)C)C[C@@H](O)[C@H](Cc3ccccc3)NC(=O)O[C@H]3CCOC3)cc2s1 [Compound 21, {(1S,2R)-1-benzyl-2-hydroxy-3-[isobutyl-(2-methylamino-benzothiazole-6-sulfonyl)-amino]-propyl}-carbamic acid(S)(tetrahydro-furan-3-yl)ester] | 15 | 15 | 15 | 120 | 30 |
